Test results: PMC8492312
Results are given in words; binding and its absence hold for the method and conditions named. Binding seen in cells or lysates may run through a third protein. Some binding calls cover weakened binding; strength is not graded here.

Molecular target: T1, SPF45 (mouse (endogenous in Hepa1-6 and in liver)) (UniProt Q8JZX4)
T1 sequence: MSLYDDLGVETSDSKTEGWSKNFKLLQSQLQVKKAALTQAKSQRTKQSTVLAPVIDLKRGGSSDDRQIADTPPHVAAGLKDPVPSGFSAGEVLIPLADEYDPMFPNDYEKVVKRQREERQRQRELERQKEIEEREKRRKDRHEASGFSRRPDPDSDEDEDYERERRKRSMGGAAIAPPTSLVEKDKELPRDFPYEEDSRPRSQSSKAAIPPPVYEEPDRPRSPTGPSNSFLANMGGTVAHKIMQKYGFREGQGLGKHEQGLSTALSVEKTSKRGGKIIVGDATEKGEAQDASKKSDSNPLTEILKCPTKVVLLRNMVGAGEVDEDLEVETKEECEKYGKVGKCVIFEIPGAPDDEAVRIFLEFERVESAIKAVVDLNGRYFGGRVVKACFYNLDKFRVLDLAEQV
Assay: co-IP; mouse liver nuclear extracts (0.1% NP-40, Benzonase) incubated with antibodies against spliceosome proteins at 4°C overnight, protein A/G-agarose, blot with lipin 1 antibody; all proteins endogenous

B1: endogenous lipin 1 (protein, UniProt Q91ZP3 1-924)
chain: MNYVGQLAGQVFVTVKELYKGLNPATLSGCIDIIVIRQPNGSLQCSPFHVRFGKMGVLRSREKVVDIEINGESVDLHMKLGDNGEAFFVQETDNDQEIIPMYLATSPILSEGAARMESQLKRNSVDRIRCLDPTTAAQGLPPSDTPSTGSLGKKRRKRRRKAQLDNLKRDDNVNSSEDEDMFPIEMSSDEDTAPMDGSRTLPNDVPPFQDDIPKENFPSISTHPQSASYPSSDREWSPSPSSLVDCQRTPPHLAEGVLSSSCPLQSCHFHASESPSGSRPSTPKSDSELVSKSADRLTPKNNLEMLWLWGELPQAAKSSSPHKMKESSPLGSRKTPDKMNFQAIHSESSDTFSDQSPTMARGLLIHQSKAQTEMQFVNEEDLESLGAAAPPSPVAEELKAPYPNTAQSSSKTDSPSRKKDKRSRHLGADGVYLDDLTDMDPEVAALYFPKNGDPGGLPKQASDNGARSANQSPQSVGGSGIDSGVESTSDSLRDLPSIAISLCGGLSDHREITKDAFLEQAVSYQQFADNPAIIDDPNLVVKVGNKYYNWTTAAPLLLAMQAFQKPLPKATVESIMRDKMPKKGGRWWFSWRGRNATIKEESKPEQCLTGKGHNTGEQPAQLGLATRIKHESSSSDEEHAAAKPSGSSHLSLLSNVSYKKTLRLTSEQLKSLKLKNGPNDVVFSVTTQYQGTCRCEGTIYLWNWDDKVIISDIDGTITRSDTLGHILPTLGKDWTHQGIAKLYHKVSQNGYKFLYCSARAIGMADMTRGYLHWVNERGTVLPQGPLLLSPSSLFSALHREVIEKKPEKFKVQCLTDIKNLFFPNTEPFYAAFGNRPADVYSYKQVGVSLNRIFTVNPKGELVQEHAKTNISSYVRLCEVVDHVFPLLKRSHSCDFPCSDTFSNFTFWREPLPPFENQDMHSASA
- binding: binds
